Record: PubChem BioAssay AID686943 (Drosophila RNAi Screening Center, 2013)

Purpose: 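Fly genes whose loss alters ERK activation after insulin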 (primary screen)
System: Drosophila S2R+ haemocyte-like cells expressing YFP-tagged ERK (Rolled)
Reagent: long dsRNA against Drosophila genes
Challenge: insulin stimulation versus unstimulated cells; dose and duration not given
Read-out: 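Per-plate z-scores of phospho-ERK immunostaining normalised to YFP-tagged ERK, measured with and without insulin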
Reading the numbers: replicate 1, z-score of dpERK with insulin and replicate 2, z-score of dpERK with insulin: higher = more active ERK per ERK-YFP after insulin; replicate 1, z-score of dpERK under basal conditions: higher = more basal active ERK per ERK-YFP; replicate 1, z-score of ERK-YFP with insulin: higher = more YFP-tagged ERK signal
In all, the deposit lists about 23,000 reagents; shown is a random part of those that have a named target and a result. 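Extra replicates exist only for a retested subset of genes; insulin dose and duration not given; both raised and lowered dpERK matter.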 The numbers tell different reagents against one gene apart. A plus sign joins genes that one reagent is predicted to hit. The record does not give: the amount of reagent, the time to read-out.

gene | reagent | replicate 1, z-score of dpERK with insulin | replicate 2, z-score of dpERK with insulin | replicate 1, z-score of dpERK under basal conditions | replicate 1, z-score of ERK-YFP with insulin
CG16775 (GeneID 39993) | 1 | -0.67 | 0.24 | -1.38 | 0.11
CG33127 (GeneID 318893) | 1 | 0.1 | 1.57 | 0.39 | 0.49
Mid1 (GeneID 37953) | 1 | -0.68 | -1.51 | 0.52 | -0.32
Mid1 (GeneID 37953) | 2 | 0.58 | -0.28 | 0.89 | 0.08
Mid1 (GeneID 37953) | 3 | 1.04 | 0.51 | 0.38 | 0.28
Mid1 (GeneID 37953) | 4 | 0.55 | 0.73 | -0.6 | -0.21
Mid1 (GeneID 37953) | 5 | 0.5 | 0.28 | -0.69 | -0.04
Acbp2 (GeneID 38784) | 1 | 0.71 | 0.77 | -0.9 | 0.58
twr (GeneID 40815) | 1 | 0.01 | -2.55 | -0.96 | 0.44
CG32686 (GeneID 318153) | 1 | 0.6 | 0.69 | 0.91 | 0.15
Tsp42Ec (GeneID 35612) | 1 | 0.53 | -0.11 | -1.6 | 0.02
aux (GeneID 40527) | 1 | -0.23 | 0.4 | -0.42 | 0.38
CG6607 (GeneID 42925) | 1 | 1.74 | 0.02 | 0.32 | 0.26
CG42784 (GeneID 326165) | 1 | -0.21 | -0.41 | -0.12 | 1.28
CG42784 (GeneID 326165) | 2 | -1.15 | -2.11 | -1.71 | -0.96
CG42784 (GeneID 326165) | 3 | 3.15 | 0.89 | -0.33 | 1.56
CG42784 (GeneID 326165) | 4 | -0.18 | 0.06 | 0.86 | 1.39
PIG-G (GeneID 35685) | 1 | 1.44 | 0.89 | -0.53 | -0.8
Best1 (GeneID 53431) | 1 | 0.49 | 0.35 | 1.05 | -0.04
dare + CG30033 | 1 | 0 | 0.76 | 0.18 | 0.37
CG17982 (GeneID 31739) | 1 | 0.67 | 0.53 | -0.03 | -0.11
Aos1 (GeneID 41532) | 1 | -0.06 | 0.12 | -0.23 | 0.14
Dnaaf4 (GeneID 34547) | 1 | -0.4 | -0.37 | 0.16 | 0.2
CG31205 (GeneID 318626) | 1 | -0.37 | 2.12 | 1.03 | -0.29

Copied from above (3 entries):
gene | reagent | replicate 1, z-score of dpERK with insulin | replicate 2, z-score of dpERK with insulin | replicate 1, z-score of dpERK under basal conditions | replicate 1, z-score of ERK-YFP with insulin
Aos1 (GeneID 41532) | 1 | -0.06 | 0.12 | -0.23 | 0.14
Dnaaf4 (GeneID 34547) | 1 | -0.4 | -0.37 | 0.16 | 0.2
CG31205 (GeneID 318626) | 1 | -0.37 | 2.12 | 1.03 | -0.29

Next records:
gene | reagent | replicate 1, z-score of dpERK with insulin | replicate 2, z-score of dpERK with insulin | replicate 1, z-score of dpERK under basal conditions | replicate 1, z-score of ERK-YFP with insulin
CG32772 (GeneID 31420) | 1 | -5.25 | 1.24 | 0.74 | -3.08
CG32772 (GeneID 31420) | 2 | 0.59 | 0.97 | -0.07 | 0.03
CG32772 (GeneID 31420) | 3 | -0.03 | 0.3 | -0.5 | -0.94
His2B:CG33894 + His2B:CG33872 + His2B:CG33902 + 20 more | 1 | -5.37 | -2.01 | -3.08 | -4.08
Pkg21D (GeneID 33253) | 1 | 1.07 | -0.4 | -0.21 | -0.44
CG9578 (GeneID 33018) | 1 | -0.41 | 0.83 | 0.37 | -0.22
CG7071 + Muted | 1 | -0.5 | -0.12 | 0.28 | -0.3
gudu (GeneID 34014) | 1 | 0.99 | -0.04 | 1.76 | 1.26
AdamTS-B (GeneID 31490) | 1 | -0.83 | -0.1 | -1.14 | 0.56
AdamTS-B (GeneID 31490) | 2 | 1.13 | 1.58 | 1.22 | 0.14
CG14196 (GeneID 32915) | 1 | 0.72 | 1.03 | -0.5 | 0.1
CG11307 (GeneID 40400) | 1 | -0.34 | 0.07 | 0.46 | 0.07
E(spl)mdelta-HLH (GeneID 43150) | 1 | 0.54 | 0 | -1.12 | 0.23
GAPcenA (GeneID 38945) | 1 | -0.03 | -0.15 | -0.03 | 0.12
Bem46 (GeneID 44441) | 1 | 0.48 | 0.3 | 0.19 | -1.52
